This is one part of the list.
Assays:
Assay in all cases: log2 fold change, soluble protein after heating vs DMSO (PISA); higher = thermal stabilisation; K562 cells, 10 uM, 30 min; active = over 0.2 and 3.5 SD of the protein, either way, in both replicates (recomputed)
[1] = compound: CC[C@@H]1C(=O)N(C)c2cnc(Nc3ccc(C(=O)NC4CCN(C)CC4)cc3OC)nc2N1C1CCCC1
Method in brief: (§1)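 K562 cells at 2×10^6 cells/mL were exposed to 10 μM compound for 30 min, then aliquots were heated for 3 min across 48°C-58°C, pooled, and extracted in PBS containing 0.5% NP-40 at 4°C. The supernatant after 21,000xg for 90 min was taken as soluble protein and measured by TMTpro 16plex LC-MS/MS with channel sums equalised. Thermal stability is reported relative to control samples, with values from duplicates. Fold changes are given on a log2 scale.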

Protein sequences, listed by entry. Tags and fused reporters are not part of them. Lines headed by an entry give the natural chain unless they say otherwise; changes in a name come on top.
UniProt Q9NZ52: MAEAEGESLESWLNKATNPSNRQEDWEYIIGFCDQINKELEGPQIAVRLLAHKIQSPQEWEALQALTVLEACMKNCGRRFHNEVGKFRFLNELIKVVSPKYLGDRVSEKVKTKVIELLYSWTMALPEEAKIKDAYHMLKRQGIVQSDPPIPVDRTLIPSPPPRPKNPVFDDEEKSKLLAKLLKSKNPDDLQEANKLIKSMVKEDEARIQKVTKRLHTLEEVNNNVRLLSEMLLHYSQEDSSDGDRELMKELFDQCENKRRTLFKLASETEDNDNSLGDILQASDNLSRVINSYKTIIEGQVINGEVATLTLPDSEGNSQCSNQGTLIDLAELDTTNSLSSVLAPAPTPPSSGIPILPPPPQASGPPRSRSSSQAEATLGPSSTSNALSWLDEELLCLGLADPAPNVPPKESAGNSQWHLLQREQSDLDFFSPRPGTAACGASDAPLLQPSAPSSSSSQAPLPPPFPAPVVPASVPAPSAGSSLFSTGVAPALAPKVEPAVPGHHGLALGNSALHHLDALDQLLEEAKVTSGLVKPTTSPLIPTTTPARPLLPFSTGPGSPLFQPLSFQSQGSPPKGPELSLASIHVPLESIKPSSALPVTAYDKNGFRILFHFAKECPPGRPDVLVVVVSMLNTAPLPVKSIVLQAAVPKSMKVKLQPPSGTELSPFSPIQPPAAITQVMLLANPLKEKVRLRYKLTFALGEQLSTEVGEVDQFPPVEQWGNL
UniProt P02794, whole entry, looked up: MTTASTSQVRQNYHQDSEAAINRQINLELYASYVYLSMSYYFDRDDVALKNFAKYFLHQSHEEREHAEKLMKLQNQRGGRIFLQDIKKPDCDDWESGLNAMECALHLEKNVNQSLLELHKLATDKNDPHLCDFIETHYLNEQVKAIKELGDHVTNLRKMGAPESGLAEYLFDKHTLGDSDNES
UniProt Q13069: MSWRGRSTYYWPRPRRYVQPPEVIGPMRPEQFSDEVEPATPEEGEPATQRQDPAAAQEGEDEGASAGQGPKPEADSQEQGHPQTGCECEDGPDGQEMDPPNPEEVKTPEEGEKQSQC
UniProt P15407: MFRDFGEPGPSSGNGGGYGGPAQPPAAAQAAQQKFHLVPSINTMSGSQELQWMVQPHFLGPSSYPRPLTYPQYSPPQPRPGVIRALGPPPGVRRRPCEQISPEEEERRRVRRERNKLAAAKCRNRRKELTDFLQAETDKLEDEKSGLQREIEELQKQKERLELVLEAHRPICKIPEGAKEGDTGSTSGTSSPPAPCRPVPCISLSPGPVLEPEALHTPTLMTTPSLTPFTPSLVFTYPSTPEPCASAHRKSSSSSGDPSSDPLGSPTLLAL
UniProt Q86YP4: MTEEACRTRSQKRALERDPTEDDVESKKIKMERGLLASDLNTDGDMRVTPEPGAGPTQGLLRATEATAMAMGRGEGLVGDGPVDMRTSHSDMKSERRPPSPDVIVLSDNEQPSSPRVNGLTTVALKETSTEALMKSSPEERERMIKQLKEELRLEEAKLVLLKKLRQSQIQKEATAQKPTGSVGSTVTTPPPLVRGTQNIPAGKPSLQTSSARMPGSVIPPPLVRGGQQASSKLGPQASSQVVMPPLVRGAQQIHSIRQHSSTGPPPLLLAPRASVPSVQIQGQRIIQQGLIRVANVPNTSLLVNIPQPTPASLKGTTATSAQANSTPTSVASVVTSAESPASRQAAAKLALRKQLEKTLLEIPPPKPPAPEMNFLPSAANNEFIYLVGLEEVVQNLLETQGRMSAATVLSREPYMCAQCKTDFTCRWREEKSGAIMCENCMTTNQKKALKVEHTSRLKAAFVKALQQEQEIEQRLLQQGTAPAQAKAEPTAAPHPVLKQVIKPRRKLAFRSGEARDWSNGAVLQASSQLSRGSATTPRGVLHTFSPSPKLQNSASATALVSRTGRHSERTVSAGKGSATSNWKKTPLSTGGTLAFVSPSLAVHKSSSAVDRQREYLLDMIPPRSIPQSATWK
UniProt O75223: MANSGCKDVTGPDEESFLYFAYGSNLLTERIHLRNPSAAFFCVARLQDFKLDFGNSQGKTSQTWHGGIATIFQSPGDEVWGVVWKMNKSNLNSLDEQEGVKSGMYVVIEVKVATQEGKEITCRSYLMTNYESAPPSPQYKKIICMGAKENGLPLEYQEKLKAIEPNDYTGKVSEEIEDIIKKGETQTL
UniProt Q14697: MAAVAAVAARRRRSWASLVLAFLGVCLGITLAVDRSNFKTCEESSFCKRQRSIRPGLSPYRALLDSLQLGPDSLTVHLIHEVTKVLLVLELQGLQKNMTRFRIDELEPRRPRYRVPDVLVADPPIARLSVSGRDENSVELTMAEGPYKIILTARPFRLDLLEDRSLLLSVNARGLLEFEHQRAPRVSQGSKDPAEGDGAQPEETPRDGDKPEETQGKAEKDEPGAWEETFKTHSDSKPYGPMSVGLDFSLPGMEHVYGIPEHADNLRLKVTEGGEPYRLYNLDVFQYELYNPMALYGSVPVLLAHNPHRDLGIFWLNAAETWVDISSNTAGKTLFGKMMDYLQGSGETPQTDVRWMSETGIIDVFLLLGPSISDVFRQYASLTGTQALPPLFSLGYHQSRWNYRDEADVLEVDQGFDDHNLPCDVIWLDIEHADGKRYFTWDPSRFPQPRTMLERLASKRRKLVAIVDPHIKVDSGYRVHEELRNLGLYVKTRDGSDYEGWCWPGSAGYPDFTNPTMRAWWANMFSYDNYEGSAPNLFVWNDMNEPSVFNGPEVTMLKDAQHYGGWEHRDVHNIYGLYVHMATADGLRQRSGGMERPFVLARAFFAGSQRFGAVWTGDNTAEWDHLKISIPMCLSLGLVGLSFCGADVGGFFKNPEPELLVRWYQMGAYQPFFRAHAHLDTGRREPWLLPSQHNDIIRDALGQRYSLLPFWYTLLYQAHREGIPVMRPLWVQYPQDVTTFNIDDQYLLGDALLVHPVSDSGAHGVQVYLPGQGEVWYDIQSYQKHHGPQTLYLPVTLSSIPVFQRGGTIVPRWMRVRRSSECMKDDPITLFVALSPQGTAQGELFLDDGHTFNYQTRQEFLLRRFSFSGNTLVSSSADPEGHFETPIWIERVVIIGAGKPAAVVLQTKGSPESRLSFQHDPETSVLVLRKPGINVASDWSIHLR
UniProt Q9C0B1, whole entry, looked up: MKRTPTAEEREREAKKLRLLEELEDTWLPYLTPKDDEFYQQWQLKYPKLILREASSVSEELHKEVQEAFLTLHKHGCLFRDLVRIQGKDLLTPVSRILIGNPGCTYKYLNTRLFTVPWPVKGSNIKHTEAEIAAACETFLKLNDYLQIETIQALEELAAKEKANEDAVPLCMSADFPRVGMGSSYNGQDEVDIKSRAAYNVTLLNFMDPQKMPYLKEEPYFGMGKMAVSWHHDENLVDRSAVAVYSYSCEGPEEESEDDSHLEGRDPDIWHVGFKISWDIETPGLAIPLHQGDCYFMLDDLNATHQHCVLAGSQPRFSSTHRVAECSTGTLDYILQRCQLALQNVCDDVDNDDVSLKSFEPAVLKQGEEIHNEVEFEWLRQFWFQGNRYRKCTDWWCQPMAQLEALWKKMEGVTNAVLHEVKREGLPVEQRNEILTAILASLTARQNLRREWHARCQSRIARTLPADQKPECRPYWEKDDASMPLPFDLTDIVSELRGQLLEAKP
UniProt P04406: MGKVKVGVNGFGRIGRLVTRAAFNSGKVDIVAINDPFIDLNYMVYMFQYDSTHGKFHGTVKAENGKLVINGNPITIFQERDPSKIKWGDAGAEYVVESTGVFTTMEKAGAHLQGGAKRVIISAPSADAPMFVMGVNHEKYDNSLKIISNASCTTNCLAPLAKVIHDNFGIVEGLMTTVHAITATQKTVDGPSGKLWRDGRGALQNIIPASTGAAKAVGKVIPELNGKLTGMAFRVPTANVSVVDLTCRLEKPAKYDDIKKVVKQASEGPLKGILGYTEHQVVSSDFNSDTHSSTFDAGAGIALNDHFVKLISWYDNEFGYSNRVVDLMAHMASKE
UniProt Q13283, whole entry, looked up: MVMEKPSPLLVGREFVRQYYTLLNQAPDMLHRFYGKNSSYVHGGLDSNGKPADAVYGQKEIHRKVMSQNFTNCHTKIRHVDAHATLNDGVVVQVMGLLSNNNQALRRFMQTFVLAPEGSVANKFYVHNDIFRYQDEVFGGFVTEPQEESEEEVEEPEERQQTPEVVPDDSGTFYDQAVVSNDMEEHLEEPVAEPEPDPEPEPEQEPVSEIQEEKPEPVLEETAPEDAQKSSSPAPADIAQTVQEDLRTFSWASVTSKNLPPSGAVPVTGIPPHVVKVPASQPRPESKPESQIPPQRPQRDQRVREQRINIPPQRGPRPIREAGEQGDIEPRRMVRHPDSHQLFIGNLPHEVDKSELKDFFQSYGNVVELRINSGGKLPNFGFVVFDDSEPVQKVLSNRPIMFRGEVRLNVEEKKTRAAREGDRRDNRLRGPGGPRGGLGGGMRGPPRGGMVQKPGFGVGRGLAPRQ
UniProt P55789: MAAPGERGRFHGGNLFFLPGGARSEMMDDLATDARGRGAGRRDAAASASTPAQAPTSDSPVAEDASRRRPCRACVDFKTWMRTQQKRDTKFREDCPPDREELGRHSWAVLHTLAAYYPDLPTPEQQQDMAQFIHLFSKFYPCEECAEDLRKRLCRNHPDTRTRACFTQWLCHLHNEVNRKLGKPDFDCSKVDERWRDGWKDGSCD
UniProt P50395: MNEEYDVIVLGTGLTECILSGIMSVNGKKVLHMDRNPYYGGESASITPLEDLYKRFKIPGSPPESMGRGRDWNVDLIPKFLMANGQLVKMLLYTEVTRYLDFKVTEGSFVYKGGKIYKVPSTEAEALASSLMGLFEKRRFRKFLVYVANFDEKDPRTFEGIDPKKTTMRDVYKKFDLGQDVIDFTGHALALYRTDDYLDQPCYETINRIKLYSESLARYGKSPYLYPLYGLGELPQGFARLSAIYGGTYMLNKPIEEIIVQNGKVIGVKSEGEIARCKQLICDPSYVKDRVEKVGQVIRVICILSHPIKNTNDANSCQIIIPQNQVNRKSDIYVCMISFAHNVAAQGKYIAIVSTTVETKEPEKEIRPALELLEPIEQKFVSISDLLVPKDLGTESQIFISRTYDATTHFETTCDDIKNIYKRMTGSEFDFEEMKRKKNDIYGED
UniProt Q8TB36: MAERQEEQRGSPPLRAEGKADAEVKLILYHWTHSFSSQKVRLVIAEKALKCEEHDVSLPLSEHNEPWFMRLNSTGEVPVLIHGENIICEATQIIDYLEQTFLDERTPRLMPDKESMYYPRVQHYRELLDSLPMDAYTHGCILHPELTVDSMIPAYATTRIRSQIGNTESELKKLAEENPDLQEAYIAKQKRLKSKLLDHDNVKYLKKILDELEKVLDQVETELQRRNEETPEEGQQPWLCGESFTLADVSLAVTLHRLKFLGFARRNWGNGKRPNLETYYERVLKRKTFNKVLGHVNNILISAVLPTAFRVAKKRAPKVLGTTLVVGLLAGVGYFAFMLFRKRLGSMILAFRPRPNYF
UniProt P02792: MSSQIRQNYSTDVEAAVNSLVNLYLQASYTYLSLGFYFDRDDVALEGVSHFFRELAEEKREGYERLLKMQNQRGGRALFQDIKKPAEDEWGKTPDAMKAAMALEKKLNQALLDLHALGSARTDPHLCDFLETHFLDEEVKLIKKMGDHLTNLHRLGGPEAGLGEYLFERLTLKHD
UniProt Q9UN86: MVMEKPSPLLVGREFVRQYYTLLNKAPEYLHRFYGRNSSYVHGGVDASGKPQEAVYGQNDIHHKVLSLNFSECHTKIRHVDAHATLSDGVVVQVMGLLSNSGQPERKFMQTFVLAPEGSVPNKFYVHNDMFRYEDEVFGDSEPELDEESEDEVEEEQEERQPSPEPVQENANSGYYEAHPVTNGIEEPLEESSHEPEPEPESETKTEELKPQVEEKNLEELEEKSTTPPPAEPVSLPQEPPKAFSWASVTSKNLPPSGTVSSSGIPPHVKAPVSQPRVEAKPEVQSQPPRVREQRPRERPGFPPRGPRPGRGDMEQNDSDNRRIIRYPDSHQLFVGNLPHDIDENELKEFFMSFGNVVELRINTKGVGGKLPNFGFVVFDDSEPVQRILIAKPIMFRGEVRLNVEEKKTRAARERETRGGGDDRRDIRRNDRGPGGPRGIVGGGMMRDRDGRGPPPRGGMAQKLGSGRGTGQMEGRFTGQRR
UniProt P02774: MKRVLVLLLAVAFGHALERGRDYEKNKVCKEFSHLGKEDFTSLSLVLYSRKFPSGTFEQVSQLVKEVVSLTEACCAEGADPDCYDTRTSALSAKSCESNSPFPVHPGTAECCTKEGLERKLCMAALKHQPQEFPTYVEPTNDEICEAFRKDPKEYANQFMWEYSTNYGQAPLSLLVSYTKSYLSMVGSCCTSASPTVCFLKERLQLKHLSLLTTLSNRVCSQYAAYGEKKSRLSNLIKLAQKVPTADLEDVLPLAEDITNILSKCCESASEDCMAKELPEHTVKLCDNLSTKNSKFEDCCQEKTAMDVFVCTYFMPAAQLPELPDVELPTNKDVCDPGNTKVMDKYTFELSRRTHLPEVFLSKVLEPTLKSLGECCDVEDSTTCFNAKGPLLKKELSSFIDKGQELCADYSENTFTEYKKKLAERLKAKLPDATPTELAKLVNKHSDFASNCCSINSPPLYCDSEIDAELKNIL

volasertib = compound: CC[C@@H]1C(=O)N(C)c2cnc(Nc3ccc(C(=O)N[C@H]4CC[C@H](N5CCN(CC6CC6)CC5)CC4)cc3OC)nc2N1C(C)C [volasertib]
Method in brief: as §1

[2] = compound: CC[C@H](C)N1C=C(C2=C(C=C(C=C21)C3=CN=C(C=C3)N4CCNCC4)C(=O)NCC5=C(C=C(NC5=O)C)C)C
Method in brief: as §1

epoxomicin = compound: CC[C@H](C)[C@@H](C(=O)N[C@@H]([C@@H](C)O)C(=O)N[C@@H](CC(C)C)C(=O)[C@]1(CO1)C)NC(=O)[C@H]([C@@H](C)CC)N(C)C(=O)C [epoxomicin]
Method in brief: as §1

[3] = compound: CCn1c(C(=O)N(C2CC2)C2CC2)cc2c3c(ncn3C)c(Nc3cc(C)n(C)n3)nc21
Method in brief: as §1

[4] = compound: CCn1cc(-c2ccnc3[nH]c(-c4cccc(CN(C)C)c4)cc23)c(-c2ccc(NC(=O)N(C)C)cc2)n1
Method in brief: as §1

[5] = compound: CN(C)CC(=O)Nc1ccc2[nH]c(=O)c3ccccc3c2c1
Method in brief: as §1

rosiglitazone = compound: CN(CCOC1=CC=C(C=C1)C[C@H]2C(=O)NC(=O)S2)C3=CC=CC=N3 (racemic) [rosiglitazone]
Method in brief: as §1

[6] = compound: CN1C2=C(C3=C1C(=O)N(N=C3)CC4=CC(=CC=C4)N)SC(=C2)S(=O)C
Method in brief: as §1

[7] = compound: CN1CCC(CNc2ccc3ncc(-c4cccc(OC(F)(F)F)c4)n3n2)CC1
Method in brief: as §1

Measured: log2 fold change

GADD45GIP1 (UniProt Q8TAE8)
inactive: [1] 0.039 | volasertib 0.152 | [2] -0.003 | epoxomicin 0.05 | [3] -0.07 | [4] -0.039 | [5] 0.013 | rosiglitazone -0.081 | [6] 0.007 | [7] -0.026

GGA3 (UniProt Q9NZ52)
inactive: [1] -0.025 | volasertib -0.169 | [2] 0.032 | epoxomicin 0.032 | [3] -0.039 | [4] -0.044 | [5] 0.09 | rosiglitazone 0.009 | [6] 0.045 | [7] 0.002

FPGT (UniProt O14772)
inactive: [1] 0.037 | volasertib -0.001 | [2] -0.025 | epoxomicin 0.025 | [3] 0.009 | [4] -0.092 | [5] -0.001 | rosiglitazone -0.008 | [6] -0.068 | [7] -0.123

FTH1 (UniProt P02794)
inactive: [1] -0.079 | volasertib -0.011 | [2] 0.122 | epoxomicin 0.069 | [3] 0.012 | [4] 0.021 | [5] -0.028 | rosiglitazone -0.038 | [6] 0.062 | [7] -0.115

GALK2 (UniProt Q01415)
inactive: [1] 0.013 | volasertib 0.05 | [2] -0.015 | epoxomicin 0.018 | [3] -0.004 | [4] -0.027 | [5] -0.026 | rosiglitazone -0.01 | [6] -0.007 | [7] -0.025

GAGE5 (UniProt Q13069)
inactive: [1] 0.056 | volasertib 0.076 | [2] -0.039 | epoxomicin 0.02 | [3] 0.047 | [4] 0.032 | [5] -0.056 | rosiglitazone -0.022 | [6] -0.049 | [7] -0.042

FOSL1 (UniProt P15407)
inactive: [1] 0.17 | volasertib 0.026 | [2] -0.051 | epoxomicin 0.055 | [3] 0.044 | [4] -0.059 | [5] -0.284 | rosiglitazone 0.104 | [6] -0.058 | [7] -0.044

GAN (UniProt Q9H2C0)
inactive: [1] 0.033 | volasertib 0.032 | [2] 0.043 | epoxomicin -0.03 | [3] -0.019 | [4] -0.07 | [5] 0.007 | rosiglitazone 0.031 | [6] 0.035 | [7] -0.101

GATAD2A isoform 3 (UniProt Q86YP4)
inactive: [1] -0.071 | volasertib -0.144 | [2] 0.059 | epoxomicin 0.094 | [3] 0.011 | [4] 0.014 | [5] 0.104 | rosiglitazone 0.017 | [6] 0.081 | [7] -0.037

GGCT (UniProt O75223)
inactive: [1] 0.012 | volasertib 0.052 | [2] -0.02 | epoxomicin 0.051 | [3] -0.015 | [4] -0.069 | [5] 0.003 | rosiglitazone 0.029 | [6] -0.054 | [7] -0.048

GANAB isoform 2 (UniProt Q14697)
inactive: [1] -0.032 | volasertib -0.021 | [2] 0.036 | epoxomicin 0.013 | [3] 0.017 | [4] 0.022 | [5] -0.006 | rosiglitazone -0.021 | [6] 0.06 | [7] 0.046

FTO (UniProt Q9C0B1)
inactive: [1] 0.045 | volasertib 0.045 | [2] -0.002 | epoxomicin 0.055 | [3] -0.02 | [4] -0.095 | [5] 0.022 | rosiglitazone -0.003 | [6] -0.03 | [7] 0.012

GFPT1 (UniProt Q06210)
inactive: [1] 0.027 | volasertib 0.065 | [2] 0.022 | epoxomicin -0.01 | [3] -0.023 | [4] -0.084 | [5] 0.007 | rosiglitazone 0.024 | [6] -0.094 | [7] -0.003

FURIN (UniProt P09958)
inactive: [1] -0.217 | volasertib -0.011 | [2] 0.008 | epoxomicin -0.016 | [3] 0.074 | [4] 0.049 | [5] 0.061 | rosiglitazone -0.022 | [6] 0.082 | [7] -0.042

GAPDH (UniProt P04406)
inactive: [1] -0.021 | volasertib 0.054 | [2] -0.007 | epoxomicin -0.008 | [3] 0.023 | [4] -0.03 | [5] 0.009 | rosiglitazone -0.002 | [6] -0.064 | [7] 0.023

FXR2 (UniProt P51116)
inactive: [1] 0.056 | volasertib -0.045 | [2] 0.019 | epoxomicin -0.108 | [3] 0.023 | [4] 0.133 | [5] -0.053 | rosiglitazone -0.001 | [6] 0.459 | [7] 0.029

Random excerpt: 2 records from the list, in no set order.
FURIN (UniProt P09958)
inactive: [1] -0.217 | volasertib -0.011 | [2] 0.008 | epoxomicin -0.016 | [3] 0.074 | [4] 0.049 | [5] 0.061 | rosiglitazone -0.022 | [6] 0.082 | [7] -0.042

FXR2 (UniProt P51116)
inactive: [1] 0.056 | volasertib -0.045 | [2] 0.019 | epoxomicin -0.108 | [3] 0.023 | [4] 0.133 | [5] -0.053 | rosiglitazone -0.001 | [6] 0.459 | [7] 0.029

Later entries

G3BP1 (UniProt Q13283)
inactive: [1] 0.172 | volasertib 0.151 | [2] 0.088 | epoxomicin -0.135 | [3] -0.002 | [4] 0.103 | [5] -0.07 | rosiglitazone -0.105 | [6] 0.147 | [7] 0.053

GFER (UniProt P55789)
inactive: [1] -0.071 | volasertib 0.036 | [2] -0.03 | epoxomicin -0.028 | [3] 0.101 | [4] -0.083 | [5] -0.061 | rosiglitazone 0.026 | [6] -0.088 | [7] -0.022

GGNBP2 (UniProt Q9H3C7)
inactive: [1] 0.032 | volasertib 0.14 | [2] -0.048 | epoxomicin 0.062 | [3] 0.018 | [4] -0.05 | [5] -0.072 | rosiglitazone 0.03 | [6] 0.228 | [7] 0.077

GALM (UniProt Q96C23)
inactive: [1] 0.014 | volasertib 0.033 | [2] 0.086 | epoxomicin 0 | [3] -0.042 | [4] -0.046 | [5] 0.025 | rosiglitazone 0.01 | [6] -0.019 | [7] -0.028

GDI2 (UniProt P50395)
inactive: [1] -0.023 | volasertib 0.134 | [2] 0.016 | epoxomicin 0.045 | [3] -0.002 | [4] -0.043 | [5] -0.031 | rosiglitazone 0.029 | [6] -0.098 | [7] 0.018

GALNS (UniProt P34059)
inactive: [1] 0.015 | volasertib 0.122 | [2] -0.076 | epoxomicin -0.04 | [3] 0.013 | [4] 0.007 | [5] 0.065 | rosiglitazone -0.041 | [6] -0.004 | [7] 0.037

GDAP1 (UniProt Q8TB36)
inactive: [1] 0.228 | volasertib 0.073 | [2] 0.023 | epoxomicin -0.047 | [3] -0.04 | [4] 0.026 | [5] -0.107 | rosiglitazone 0.01 | [6] 0.047 | [7] -0.052

FTL (UniProt P02792)
inactive: [1] 0.101 | volasertib 0.138 | [2] 0.081 | epoxomicin -0.042 | [3] 0.039 | [4] 0.022 | [5] 0.003 | rosiglitazone 0.016 | [6] 0.033 | [7] 0.003

FUBP1 isoform 2 (UniProt Q96AE4)
inactive: [1] 0.001 | volasertib 0.067 | [2] -0.063 | epoxomicin -0.018 | [3] -0.013 | [4] 0.003 | [5] -0.024 | rosiglitazone -0.011 | [6] -0.032 | [7] 0.01

G3BP2 (UniProt Q9UN86)
inactive: [1] 0.185 | volasertib 0.269 | [2] 0.054 | epoxomicin -0.193 | [3] 0.014 | [4] 0.128 | [5] -0.071 | rosiglitazone -0.135 | [6] 0.197 | [7] 0.201

G6PD isoform 2 (UniProt P11413)
inactive: [1] -0.054 | volasertib 0.037 | [2] 0.056 | epoxomicin 0.047 | [3] 0.013 | [4] -0.059 | [5] 0.005 | rosiglitazone 0.043 | [6] -0.083 | [7] -0.036

GAR1 (UniProt Q9NY12)
inactive: [1] 0.278 | volasertib 0.217 | [2] -0.026 | epoxomicin -0.191 | [3] -0.009 | [4] 0.221 | [5] -0.086 | rosiglitazone -0.094 | [6] 0.215 | [7] 0.242

GC isoform 3 (UniProt P02774)
inactive: [1] -0.02 | volasertib 0.068 | [2] -0.004 | epoxomicin -0.663 | [3] -0.037 | [4] 0.223 | [5] 0.002 | rosiglitazone -0.111 | [6] 0.154 | [7] 0.1

GGT2 isoform 3 (UniProt P36268)
inactive: [1] 0.168 | volasertib 0.107 | [2] 0.046 | epoxomicin -0.056 | [3] 0.06 | [4] -0.025 | [5] -0.042 | rosiglitazone -0.019 | [6] -0.051 | [7] 0.121

Source: the supplement of paper PMC10849652
